This note sets out measurements from PMC9643420.

Chains of the proteins cited; added tags and fusions are not shown.
UniProt Q00839: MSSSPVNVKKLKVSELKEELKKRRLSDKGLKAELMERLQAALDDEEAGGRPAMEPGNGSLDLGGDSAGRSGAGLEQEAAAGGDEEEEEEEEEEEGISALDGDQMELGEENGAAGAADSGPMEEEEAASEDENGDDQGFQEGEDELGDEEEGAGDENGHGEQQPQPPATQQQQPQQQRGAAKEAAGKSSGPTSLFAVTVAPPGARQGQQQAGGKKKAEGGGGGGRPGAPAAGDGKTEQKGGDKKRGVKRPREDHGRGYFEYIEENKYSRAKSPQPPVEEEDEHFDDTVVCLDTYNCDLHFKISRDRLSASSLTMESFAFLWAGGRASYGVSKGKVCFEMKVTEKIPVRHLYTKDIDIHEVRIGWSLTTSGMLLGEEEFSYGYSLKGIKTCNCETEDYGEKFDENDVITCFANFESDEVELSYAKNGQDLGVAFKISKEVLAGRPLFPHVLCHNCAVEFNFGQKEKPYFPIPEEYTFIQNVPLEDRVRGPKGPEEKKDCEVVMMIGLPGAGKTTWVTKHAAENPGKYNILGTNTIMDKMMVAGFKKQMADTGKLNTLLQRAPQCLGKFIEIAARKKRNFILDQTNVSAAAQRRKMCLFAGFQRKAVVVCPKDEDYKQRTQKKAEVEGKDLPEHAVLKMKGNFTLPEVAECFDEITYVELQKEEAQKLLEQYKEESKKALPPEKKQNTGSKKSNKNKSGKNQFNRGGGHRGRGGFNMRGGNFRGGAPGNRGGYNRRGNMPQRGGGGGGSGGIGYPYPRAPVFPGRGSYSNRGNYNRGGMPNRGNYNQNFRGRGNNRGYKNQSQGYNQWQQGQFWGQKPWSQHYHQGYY
UniProt P17844: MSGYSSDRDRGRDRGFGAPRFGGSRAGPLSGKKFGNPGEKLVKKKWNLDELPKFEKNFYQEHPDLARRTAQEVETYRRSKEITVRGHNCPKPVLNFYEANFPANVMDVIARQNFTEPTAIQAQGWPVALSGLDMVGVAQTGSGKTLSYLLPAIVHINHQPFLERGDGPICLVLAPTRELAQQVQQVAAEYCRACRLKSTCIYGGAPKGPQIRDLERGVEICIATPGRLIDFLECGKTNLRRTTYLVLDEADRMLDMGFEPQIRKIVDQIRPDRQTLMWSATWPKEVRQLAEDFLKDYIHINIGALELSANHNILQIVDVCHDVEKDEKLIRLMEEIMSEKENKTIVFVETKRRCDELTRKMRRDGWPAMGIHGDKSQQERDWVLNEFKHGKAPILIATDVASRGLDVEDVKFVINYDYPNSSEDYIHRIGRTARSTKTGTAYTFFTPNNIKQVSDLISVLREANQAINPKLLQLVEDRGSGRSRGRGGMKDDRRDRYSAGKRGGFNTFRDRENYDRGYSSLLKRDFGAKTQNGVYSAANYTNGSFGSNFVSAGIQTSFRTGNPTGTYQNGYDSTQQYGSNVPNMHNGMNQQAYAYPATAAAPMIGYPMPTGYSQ

The test addresses 3XFlag-tagged overexpression HNRNPU protein (heterogeneous nuclear ribonucleoprotein U) (UniProt Q00839). The test is described as follows: affinity purification with mass spectrometry; HNRNPU-Flag overexpressed in HEK293T, lysed in NP40 buffer (0.5% NP40, 50 mM Tris-HCl pH 8, 150 mM NaCl, 10% glycerol, 2 mM MgCl2, 1 mM EDTA), anti-Flag antibody overnight at 4 °C, protein G magnetic beads, whole SDS-PAGE lane sequenced by mass spectrometry.

Results are given in words; binding and its absence hold for the method and conditions named. Binding seen in cells or lysates may run through a third protein. Here binding means that the protein was enriched with, or labelled near, the bait; the list need not be complete.

For the substance “endogenous DDX5 (DEAD box helicase 5) (from UniProt P17844 1-614)”, the binding result is “binds”.
